Library screen at single concentrations

From ChEMBL document CHEMBL3988442, “University of Dundee, Small-Polar-MMV Screening Library” (2021).

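Whole-parasite assay of Trypanosoma brucei over 72 hours; the read-out is not stated. Concentration: 30 µM. Direction is inferred from retests: higher values go with stronger inhibition. Values scatter widely below zero; nearly all retest evidence comes from the higher of the two concentrations used. Size under these conditions: about 64,000 compounds, about 940 of them at 50% or above in at least one test.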

The filed quantity is “Percent Effect” (%). The record does not define 0% and 100%; most values in the screen are far below 50% and negative numbers occur (in some assays of this library far below -100). Compounds were drawn at random from those tested, without regard to their results.

SMILES | effect
COCC1CN(Cc2sccc2C)Cc2nnn(CC3CC3)c21.O=C(O)C(F)(F)F (stereo not given) | -25.59
COCC1c2c(cnn2C)CCN1C(=O)c1cccn1C.O=C(O)C(F)(F)F (stereo not given) | -74.09
Cc1nn(C)cc1CN1CCCC(n2c(=O)oc3ccc(Cl)cc32)C1 (stereo not given) | 8.117
Cc1ccsc1C(=O)N1CC2CC1(C(=O)NCC1CC1)C2 | -19.39
Cc1ccc2c(n1)N(CCn1cccn1)CCN(CC1CC1)C2.O=C(O)C(F)(F)F.O=C(O)C(F)(F)F | -30.39
CN(C)C(=O)c1cc(-c2ccccc2)[nH]n1 | 8.9
Cc1cc(CN(C)Cc2ncc(-c3cccs3)o2)no1 | -62.22
Cc1cc2n(n1)CC(CNCc1cc(C)on1)CN2 (stereo not given) | -54.24
O=C(O)C(F)(F)F.O=C(O)C(F)(F)F.[H][C@@]12CN(C(=O)c3ccccn3)C[C@]1([H])OCCN2C(C)C | 41.46
Cc1noc(C)c1CN(C)C(=O)c1ccc(C(F)(F)F)nc1 | 5.462
CC(c1ccc(Cl)cc1)N1CCN(CCCS(N)(=O)=O)CC1 (stereo not given) | -38.84
COC[C@]1(O)CCN(c2cc(C3CC3)ncn2)CC1(C)C | -60.73
Cc1nn(C)c(C)c1NC(=O)CCn1ncc2c(C)cccc21 | 36.05
CCN1CCC2(CCC1=O)CN(c1nccc(N)n1)CCN2C (stereo not given) | -8.43
CC(C)N1CCCC1c1cc(CO)[nH]n1.O=CO (stereo not given) | -7.818
O=C(O)C(F)(F)F.c1cc(CNCC2Cn3nncc3CO2)co1 (stereo not given) | -32.98
[H][C@]12CC[C@]([H])(CN(Cc3cscn3)C1)N(C(=O)CSc1ccccn1)C2 | -4.907
O=C(O)C(F)(F)F.[H][C@@]12C[C@@H](C(=O)N3CCC(C)CC3)CN(Cc3ccoc3)[C@]1([H])CCO2 | -1.461
O=C(CC1CCCO1)NS(=O)(=O)Cc1cc(-c2ccccc2)no1 (stereo not given) | -26.45
Cc1cc(CNC(=O)C2CCCN2C(=O)OC(C)(C)C)no1 (stereo not given) | -20.19
CC(C)N(C)Cc1cn2c(n1)CN(C(=O)c1ccc[nH]1)CC2 | -353.9
COc1cc(OC)cc(C(=O)NCC(c2cccn2C)N2CCCC2)c1 (stereo not given) | 2.05
CC(C)NC(=O)CCN1CCCC1c1cccc2c1OCCO2 (stereo not given) | 19.87
CCCNc1cc(-c2c[nH]nc2C2CCN(C(=O)C3CCC3)C2)ccn1 (stereo not given) | 99.71
Cc1nnc(SCCNC(=O)Cn2cnc3ccccc3c2=O)s1 | -4.998
CCC(=O)NC1CCCN(C(=O)Nc2cccc(COC(C)C)c2)C1 (stereo not given) | 10.36
COc1cccn(Cc2nnc(-c3cccnc3)o2)c1=O | -2.074
Cc1ccccc1C(=O)NC1CCN(Cc2ncc(C(C)(C)C)o2)CC1 | 7.81
CCCN1CCCC1c1nc(Cc2ccc(F)cc2)no1 (stereo not given) | -23.47
COc1cccc(CNC(=O)NC2(c3nc(C)no3)CCCCC2)c1 | -26.18
Cc1noc(C)c1CN1CCc2ncnc(-c3cnn(C)c3)c2CC1.O=C(O)C(F)(F)F | -92.44
Cc1ccc(C(=O)NCC(O)CN2CCCC2=O)cc1Cl (stereo not given) | -38.68
Clc1ccc(CN2CCN(Cn3nccc3-c3cccnc3)CC2)s1 | 2.5
N#Cc1cccc(NC(=O)C2CCCN2c2nccs2)c1 (stereo not given) | 10.51
CCNC(=O)CN(Cc1ccoc1)C1CCCCC1 | 21.62
CCCN(CCC)C(=O)c1cc(CN2CCC(O)CC2)on1 | 7.332
CC(C)(C)OC(=O)N1CCCN(Cc2ccon2)c2ccccc21 | -54.1
CC(C)N1C[C@H](O)C[C@H]1c1nc(-c2ccc(OC(F)(F)F)cc2)no1 | -20.8
Cc1[nH]nc2ncc(C(=O)N3CCN(C(C)(C)C)CC3)cc12 | 8.542
Cn1ccnc1CNc1nccc(-c2ncnn2C)n1 | 1.43
O=C(O)C(F)(F)F.O=C(O)C(F)(F)F.[H][C@@]12CN(CCN3CCCC3)CC[C@]1([H])CN(c1cnccn1)C2 | 4.729
CC(Oc1ccc2c(c1)OCO2)C(=O)N1CCC(N2CCOCC2)CC1 (stereo not given) | -40.65
Fc1cc(Cl)cnc1N1CCCC(c2nccn2CC2CC2)C1 (stereo not given) | -80.87
CCn1nc(CC(C)C)cc1C(=O)N1CC(c2ccncc2)C1 | 12.66
[H][C@]12CC[C@]([H])(CN(S(=O)(=O)c3cccc(Cl)c3)C1)N(CCOC)C2=O | -20.37
O=C(O)C(F)(F)F.[H][C@@]12CCN(c3nnc(C)s3)C[C@]1([H])O[C@H](C(=O)N1CCCC1)C2 | -391.5
Cc1noc(C)c1C(=O)NCCN1CCN(S(C)(=O)=O)CC1 | -11.98
CC(C)c1cc(=O)[nH]c(-c2ccccc2CN2CCCCCC2)n1 | -7.171
CC(C)NC(=O)c1nnn(-c2cccc(C(F)(F)F)c2)c1C1CC1 | -12.95
O=C(CN1C=Nc2ccccc2S1(=O)=O)NCC1CC1 | 17.07
COc1ccc(C2CNCCN2C(=O)c2cccc3cccnc23)cc1 (stereo not given) | -5.159
CN(C)CC1(O)CCCN(C(=O)Cn2nc3ccccc3n2)CC1 (stereo not given) | -57.71
CCNc1cc2c(nn1)CCN(C(=O)Cc1ccc(C)nc1)C2 | 5.252
CCn1cc(C(=O)Nc2ccc(C)cc2C(=O)NC)cn1 | -16.25
CNc1nc(C(=O)N2CCN(c3ccc(Cl)c(Cl)c3)CC2)cs1 | 11.2
O=C(c1cccc(S(=O)(=O)NCCCc2ccco2)c1)N1CCOCC1 | -38.12
CN(C)CCn1ccc2cc(NC(=O)NCc3ncnn3C)ccc21 | -3.411
O=C1CC2(CCN(Cc3ccc(Cl)s3)C2)C(=O)N1 (stereo not given) | -58.72
COCC1c2nnn(C)c2CCN1C(=O)COc1ccccc1C (stereo not given) | -86.41
Cc1ccc(-c2cn(C3CCN(C(=O)[C@H]4CCCO4)CC3)nn2)cc1 | -4.154
CCC(CC)NC(=O)Cn1cc(C(N)=O)c(-c2ccccc2)n1 | -27.88
Cc1c2ncn(CC(=O)N(C)C)c(=O)c2nn1C | -39.21
O=S(=O)(c1cnccc1N1CCN(CCO)CC1)N1CCCCC1 | -81.38
Cc1nn2c(N3CCC(C(N)=O)CC3)cc(-c3ccccc3)nc2c1C | -45.86
CS(=O)(=O)NCC1CCCN(C(=O)c2cc3ccccc3o2)C1 (stereo not given) | 1.962
CC(=O)c1sc(Nc2ccc(Cl)cn2)nc1C | -20.54
O=C(c1ccc(N2CCCC2)nn1)N1CCCc2ccc(F)cc21 | -22.95
CC(NC(=O)c1sccc1C1CC1)c1ccc2c(c1)CC(=O)N2 (stereo not given) | -42.41
CO[C@H]1CNC[C@@H]1NC(=O)c1cc(C)nc2c(C)cc(C)cc12 | 3.789
COCc1cn(C2CCN(CCC(C)c3ccccc3)CC2)nn1 (stereo not given) | -4.177
[H][C@]12CC[C@]([H])(CN(CC(=O)N(C)C)C1)N(C(=O)CCCn1cncn1)C2 | -3.281
O=C(CN1CCNCC1)NCc1ccc2sccc2c1 | -4.963
Cc1cnn(CC2CCCN2Cc2coc(-c3cccc(F)c3)n2)c1 (stereo not given) | -24.28
CCc1csc(NC(=O)NCc2ccccn2)n1 | -5.254
Cn1cc(S(=O)(=O)NCC(C)(O)c2ccsc2)cn1 (stereo not given) | -54.47
CS(=O)(=O)c1ccccc1N[C@@H]1c2ccccc2C[C@@H]1O | -89.03
COCCOCC(=O)Nc1ccc(F)cc1C | -28.78
CN1C(=O)CCN(C(=O)C2CC=CC2)c2ccccc21 | -2.591
Cn1cccc1CNCc1nnc2n1CCCC2C(F)(F)F (stereo not given) | -4.039
CC1(C)Cc2c(cnn2-c2ccccc2)C(NC2CCSCC2)C1 (stereo not given) | 82.22
COc1ccc(-n2cc(CCO)cn2)cc1C(N)=O | 5.711
CN(C)c1ncc(-c2cncn2CCc2ccc3c(c2)OCCO3)cn1.Cl | -21.7
CC(C)c1cccc(-n2cc(O)c(C(=O)NCCC(=O)N(C)C)n2)c1 | 9.756
CCN(C(=O)CCCOc1ccccc1F)c1ccncc1 | 29.06
Cc1nc(CN2C(=O)CCC23CCN(Cc2ccoc2)CC3)cs1.O=C(O)C(F)(F)F.O=C(O)C(F)(F)F | -2.412

For reference, 6 entries once more:

SMILES	effect
Cc1[nH]nc2ncc(C(=O)N3CCN(C(C)(C)C)CC3)cc12	8.542
O=C(O)C(F)(F)F.[H][C@@]12C[C@@H](C(=O)N3CCC(C)CC3)CN(Cc3ccoc3)[C@]1([H])CCO2	-1.461
CCNc1cc2c(nn1)CCN(C(=O)Cc1ccc(C)nc1)C2	5.252
CO[C@H]1CNC[C@@H]1NC(=O)c1cc(C)nc2c(C)cc(C)cc12	3.789
CC(NC(=O)c1sccc1C1CC1)c1ccc2c(c1)CC(=O)N2 (stereo not given)	-42.41
O=C(O)C(F)(F)F.O=C(O)C(F)(F)F.[H][C@@]12CN(C(=O)c3ccccn3)C[C@]1([H])OCCN2C(C)C	41.46